Experimental data: patent EP4501348A1, “PEPTIDES FOR USE IN THE IMPROVEMENT OF WELL-BEING” (Forssmann, Wolf-Georg, priority 2023, dated 2025)
Not every detail of the peptide structures is certain; ends, links or a residue may be inferred. Ends that are not written are not given here.

Columns and labels:
[1] = Well-being controlled with the EQ-5D-5L questionnaire; assay type: in vivo; conditions: one person, suffering from COVID 19; nasal spray 1 mg/mL in citrate/bicarbonate buffer, intranasally three times a day, two strokes into each nasal cavity, six weeks
[2] = Isoelectric point (pI) of the peptide; assay type: physicochemical

Row | Sequence | well being (EQ-5D-5L questionnaire) [1] | isoelectric point (pI) [2]
1 | IVRYTKKVPQVS [SEQ ID NO: 21, IVRYTKKVPQVS] | improved by at least one level | 
2 | LVRYTKKVPQVSTPTL [ALB408-423, LVRYTKKVPQVSTPTL] |  | 10.3
